Source: PubChem BioAssay AID493014 (National Center for Advancing Translational Sciences (NCATS), 2011)
The other results are listed elsewhere or left out. Shown are side measurements of this screen, not its main read-out; they come without a call. Compounds called inactive in the main read-out are mostly missing here. Potencies come from curve fits of mixed quality, noted in brackets.

Test: qHTS Assay to Find Inhibitors of Chronic Active B-Cell Receptor Signaling
Conditions: ABC-DLBCL IkBa-CBG/CBR reporter, luminescence ratio (green luciferase fused to IkBa over red control in TMD8 lymphoma cells), 4 h
How it was run: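 Doxycycline induced both beetle luciferases in TMD8 lymphoma cells; IKK-driven degradation limits the IkappaBalpha-fused green signal, while red luminescence normalises for cell number and nonspecific effects. Compounds tested up to 46 uM, 4 hrs.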

[1] = measured here: CBR red luminescence, cell number
[2] = measured here: IkBa-CBG green luminescence

| Compound | AC50 [1] | AC50 [2] |
| --- | --- | --- |
| Cc1cccc(-n2c(N)cc(=O)nc2SCC(=O)Nc2nnc(CC(C)C)s2)c1 | 0.184 µM [rising, full curve, poor fit] | – |
| O=c1cc[nH]c2c(Cl)cccc12 | 0.631 µM [falling, full curve] | – |
| O=c1c2cc(N3CCOCC3)ccc2[nH]c(=S)n1CC1CCCO1 (centres undefined) | 0.116 µM [falling, full curve, poor fit] | – |
| CC(Oc1ccccc1)C(=O)Nc1nc(-c2ccccn2)cs1 (centres undefined) | 7.31 µM [falling, single point] | – |
| O=C(Cn1cc(C(=O)c2cccs2)c2ccccc21)NCc1cccs1 | 0.231 µM [rising, full curve, poor fit] | – |
| COc1ccc(CCNc2nc(-c3ccc(O)cc3)cs2)cc1OC | 35.5 µM [falling, single point] | – |
| COc1ccc(N(CC(=O)NCCSc2ccccc2)S(=O)(=O)c2ccccc2)cc1OC | 5.62 µM [rising, single point] | – |
| Cc1cc(/C=C(\C#N)C(=O)N2CCCCC2)cc(C)c1O | 4.47 µM [rising, partial curve, poor fit] | 15.8 µM [falling, partial curve, poor fit] |
| O=C(NCc1cccs1)c1ccncc1 | 7.31 µM [falling, partial curve, poor fit] | – |
| COC(=O)c1ccc(-n2nnnc2SCC(=O)Nc2ccccc2F)cc1 | 12.6 µM [falling, partial curve] | – |
| O=C(CSc1ccc(-c2nc3ccccc3[nH]2)cn1)N1CCN(C(=O)c2ccco2)CC1 | 35.5 µM [falling, single point] | – |
| CCOC(=O)CSC1=C(C#N)C(c2ccccc2C)C2=C(CCCC2=O)N1 (centres undefined) | 18.4 µM [falling, single point] | – |
| Clc1ccc(Nc2nc3ccccc3n3nnnc23)cc1 | 11.6 µM [falling, partial curve, poor fit] | – |
| Cc1ccc2oc(C(Cl)(Cl)Cl)cc(=O)c2c1 | – | 25.1 µM [falling, single point] |
| CN1CCN(Cc2nc3ccccc3c(=O)n2Cc2nc(-c3ccc4ccccc4c3)cs2)CC1 | 29.1 µM [falling, single point] | – |
| CCCCCOC(=O)CSc1nnc(-c2ccccc2)c(=O)[nH]1 | 4.47 µM [rising, partial curve, poor fit] | – |
| COC(=O)c1cc2c(N)c(C(=O)c3ccc(Cl)cc3)sc2nc1C(OC)OC | – | 0.708 µM [rising, full curve, poor fit] |
| C/C(=N\NC(=O)COc1ccccc1-c1ccccc1)c1ccccn1 | 10 µM [rising, partial curve] | 22.4 µM [falling, partial curve] |
| O=C(CSc1nnc(CNC(=O)c2ccccc2F)o1)Nc1ccc2c(c1)OCCO2 | 25.9 µM [rising, partial curve, poor fit] | – |
| CCCOC(=O)c1[nH]c2c(c1C)C(=O)CC(c1cc(OC)c(OC)c(OC)c1)C2 (centres undefined) | 16.4 µM [falling, partial curve] | – |
| O=C(NNC(=O)c1cccs1)c1ccncc1 | 25.1 µM [falling, single point] | – |

| Compound | AC50 [1] | AC50 [2] |
| --- | --- | --- |
| O=C(NNC(=O)c1cc2ccccc2cc1O)c1cccs1 | 0.355 µM [falling, full curve] | – |
| COc1cc(/C=N/Nc2nncn2N)ccc1OCc1c(C)no[n+]1[O-] | 35.5 µM [falling, single point] | – |
| CC(=O)Nc1ccc(NC(=O)C2CCCN2S(=O)(=O)c2cccc3nsnc23)cc1 (centres undefined) | 35.5 µM [rising, single point] | – |
| COc1ccc(C2C(CC(=O)O)=C(Nc3ccccc3)C(=O)N2c2ccccc2)cc1 (centres undefined) | 10 µM [falling, partial curve, poor fit] | – |
| O=C(NC1CCCCCC1)c1cccc(S(=O)(=O)N2CCOCC2)c1 | 2.59 µM [rising, full curve] | – |
| Cc1cccc(C)c1-n1c(=O)n(Cc2ccccc2)c(=O)c2[nH]cnc21 | 5.62 µM [rising, single point] | – |
| COc1ccc(NC(=O)CN(C)CC(=O)Nc2cccc(C(C)=O)c2)cc1 | 1 µM [rising, partial curve, poor fit] | – |
| Cc1ccc(N=Cc2c(O)n(-c3nccs3)c(=O)c3ccccc23)c(C)c1 | 32.6 µM [falling, partial curve, poor fit] | – |
| O=C(Nc1cccc(-c2nn[nH]n2)c1)c1ccc(Cl)s1 | 20 µM [falling, single point] | – |
| COc1ccc(-c2sc3ccccc3c2C#CCO)cc1 | 0.794 µM [rising, full curve, poor fit] | – |
| COc1ccccc1/C=C\C(=O)NCC(=O)N/N=C(/C)c1cccc([N+](=O)[O-])c1 | 35.5 µM [falling, single point] | – |
| CCCc1cc(C(=O)NCc2cccs2)no1 | 17.8 µM [falling, single point] | – |
| COCc1cc(C)nc2sc(C(=O)NC3CCCCC3)c(N)c12 | 20.6 µM [falling, partial curve] | – |
| COc1cccc(/C=C2\SC(=S)N(CC3CCCO3)C2=O)c1 (centres undefined) | 18.4 µM [rising, single point] | – |
| CC[n+]1c(C)sc2cc(OC)ccc21 | 35.5 µM [falling, single point] | – |
| COc1cc(C)ccc1OCCCON1C(=O)CCC1=O | 1.84 µM [rising, full curve] | – |
| CCN(CC)c1cc(Cl)c2nonc2c1N | 14.1 µM [rising, single point] | – |
| COc1cc(C(=O)N2CCN(C3CCC(C)CC3)CC2)cc(OC)c1OC (centres undefined) | 35.5 µM [falling, partial curve, poor fit] | – |
| O=C(CCC1CCCCC1)Nc1ccccc1-c1ccccc1 | 35.5 µM [rising, single point] | – |
| Cc1cccc(NC(=S)N(CCCN2CCCC2)Cc2cccn2Cc2ccc(Cl)cc2)c1 | 17.8 µM [falling, partial curve, poor fit] | – |
| COc1cc(/C=N/N2C(=O)CSC2=S)cc(Br)c1O | 35.5 µM [rising, partial curve, poor fit] | – |

Entries listed so far that have two or more sulfur atoms, in the order listed:

| Compound | AC50 [1] | AC50 [2] |
| --- | --- | --- |
| Cc1cccc(-n2c(N)cc(=O)nc2SCC(=O)Nc2nnc(CC(C)C)s2)c1 | 0.184 µM [rising, full curve, poor fit] | – |
| O=C(Cn1cc(C(=O)c2cccs2)c2ccccc21)NCc1cccs1 | 0.231 µM [rising, full curve, poor fit] | – |
| COc1ccc(N(CC(=O)NCCSc2ccccc2)S(=O)(=O)c2ccccc2)cc1OC | 5.62 µM [rising, single point] | – |
| CC(=O)Nc1ccc(NC(=O)C2CCCN2S(=O)(=O)c2cccc3nsnc23)cc1 (centres undefined) | 35.5 µM [rising, single point] | – |
| COc1cccc(/C=C2\SC(=S)N(CC3CCCO3)C2=O)c1 (centres undefined) | 18.4 µM [rising, single point] | – |
| COc1cc(/C=N/N2C(=O)CSC2=S)cc(Br)c1O | 35.5 µM [rising, partial curve, poor fit] | – |
